Results from PubChem BioAssay AID504467 (National Center for Advancing Translational Sciences (NCATS), 2011).
The campaign covered roughly 330,000 compounds. About 7,700 (2.3%) were called active. The shares of active, inactive and inconclusive entries below differ from those in the screen. The call rests on the fitted dose curve; in most records, active means well fitted inhibition curve with a large enough effect; inconclusive means small, poorly fitted or top-dose-only effect, or effect the other way; inactive means flat fitted curve, though single readings scatter. Where the call is inconclusive, the potency comes from a doubtful curve fit.

assay: qHTS screen for small molecules that inhibit ELG1-dependent DNA repair in human embryonic kidney (HEK293T) cells expressing luciferase-tagged ELG1; conditions: HEK293T ELG1-luciferase reporter, luminescence, 16 h, DNA damage induced by 5-fluorouridine; series mostly up to 46.1 µM; further: nearly all actives have a fitted effect of over 55% in size
Method in brief: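 Luminescence from the luciferase reporter, measured 30 min after ONE-Glo reagent at room temperature, was the read-out. Beforehand, 2,000 cells per well were exposed for 16 hr at 37 °C to 5-fluorouridine together with compound or vehicle.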
Potency means the concentration at half of the fitted maximal effect.

Q: For `COc1cc(C(=O)Nc2nc3ccccc3s2)ccc1OCc1c(C)noc1C`, which Potency is on record?
A: inconclusive: 20.6 µM [inhibitor, single point]

Q: For `Cc1[nH]c2ccccc2c1/C=N/NC(=O)c1cc(C(C)(C)C)[nH]n1`, which Potency is on record?
A: inactive

Q: For `O=C(NCc1ccccc1)c1ccc(Oc2ccc(C(=O)NCc3ccccc3)cc2)cc1`, which Potency is on record?
A: inconclusive: 4.11 µM [inhibitor, single point]

Q: For `N#C/C(=C\c1cccnc1)c1ccccc1[N+](=O)[O-]`, which Potency is on record?
A: inactive

Q: For `O=[N+]([O-])c1cnc(Sc2ccncn2)s1`, which Potency is on record?
A: inconclusive: 29.1 µM [inhibitor, single point]

Q: With `CC(=O)c1c(C)[nH]c(C(=O)NNC(=O)COc2ccc(Cl)cc2C)c1C` as the molecule, how does the Potency read?
A: inactive

Q: For `Cc1cc(C)nc(Nc2nc(=O)c3ccccc3s2)n1`, which Potency is on record?
A: inconclusive: 15.8 µM [activator, partial curve, poor fit]

Q: For `C=CCn1c(C)cc(C2=NNC(=Nc3ccc(C)cc3)SC2)c1C`, which Potency is on record?
A: inconclusive: 2.31 µM [activator, partial curve]

Q: For `CCOC(=O)c1[nH]c(C)c(C(=O)N2CCN(c3ccccc3OC)CC2)c1C`, which Potency is on record?
A: inactive

Q: Which Potency does the source give for `Nc1ncnc2c1ncn2C1OC(CO)C(O)C1O` (stereo not drawn) here?
A: inconclusive: 9.2 µM [activator, partial curve]

Q: Which Potency does the source give for `COc1ccc(CN2CC(=O)N(c3cccc(Cl)c3)C2=S)cc1OC` here?
A: inconclusive: 25.9 µM [inhibitor, partial curve]

Q: Which Potency does the source give for `CN(C)c1ccc(-c2ccc([C@H]3[C@@H]4C=CCC[C@@]4(C)C(=O)N3Cc3ccccc3)c(F)c2)cc1` here?
A: inactive

Q: With `Cn1c(=O)c(C(=O)CN2CCCc3ccccc32)c(N)n(Cc2ccccc2)c1=O` as the molecule, how does the Potency read?
A: inconclusive: 35.5 µM [inhibitor, single point]

Q: With `COc1ccc(-c2csc(C3=C(O)CN(Cc4ccc(Cl)cc4)C3=N)n2)cc1OC` as the molecule, how does the Potency read?
A: inconclusive: 11.6 µM [inhibitor, partial curve, poor fit]

Q: For `CCCC12CN3CCN(CC(C3)/C1=N\NC(=O)c1ccccc1Cl)C2`, which Potency is on record?
A: inconclusive: 29.1 µM [activator, single point]

Q: With `CCC(=O)OCC(=O)Nc1cc([N+](=O)[O-])ccc1Cl` as the molecule, how does the Potency read?
A: inactive

Q: With `O=C(CCc1ccc(S(=O)(=O)N2CCOCC2)cc1)Nc1c(F)cccc1F` as the molecule, how does the Potency read?
A: inactive

Q: For `CC1CCCCN1C(=O)CSc1nc2cc3c(cc2c(=O)n1Cc1ccc2c(c1)OCO2)OCO3` (stereo not drawn), which Potency is on record?
A: inconclusive: 11.2 µM [inhibitor, partial curve]

Q: For `Cc1ccccc1/C=N/NC(=O)Cn1cnc([N+](=O)[O-])n1`, which Potency is on record?
A: inactive

Q: For `Cc1ccc(/C=C/C(=O)Nc2ccc([N+](=O)[O-])cc2)o1`, which Potency is on record?
A: active: 1.84 µM

Q: With `O=c1[nH]c2ccccc2nc1/C=C/c1ccc(O)cc1` as the molecule, how does the Potency read?
A: inconclusive: 9.2 µM [activator, partial curve]

Q: For `CCOC(=O)c1nnsc1Nc1ccc(C)c(C)c1`, which Potency is on record?
A: inconclusive: 23.1 µM [activator, partial curve]

Q: Which Potency does the source give for `CCN(CC)S(=O)(=O)c1ccc2c(c1)c(=O)c(C(=O)NCc1ccco1)cn2C` here?
A: inconclusive: 13 µM [inhibitor, partial curve]

Q: For `CCSc1nc2c(c(=O)n1Cc1ccccc1)SC(C)C2` (stereo not drawn), which Potency is on record?
A: inactive

Q: For `Cc1ccc(-c2nnn(CC(=O)N(CC(=O)NC3CCCC3)c3ccc(F)c(Cl)c3)n2)o1`, which Potency is on record?
A: inconclusive: 29.1 µM [activator, partial curve, poor fit]

Q: With `COc1ccc(NC(=O)Cc2nnc(N)s2)cc1` as the molecule, how does the Potency read?
A: inconclusive: 11.6 µM [activator, partial curve]

Q: For `O=C(/C=C\Nc1ccccc1Br)c1ccc2c(c1)OCO2`, which Potency is on record?
A: inconclusive: 1.46 µM [activator, partial curve]

Q: For `Cn1nnc2cc(C(=O)N3CCSCC3)ccc21`, which Potency is on record?
A: inconclusive: 23.1 µM [activator, partial curve, poor fit]

Q: For `C=CCN(Cc1cc(OC)ccc1OC)C(=O)c1cc2ccc(OC)cc2[nH]1`, which Potency is on record?
A: inactive

Q: For `COc1ccccc1-c1nc(C#N)c(N2CCN(c3cccc(Cl)c3)CC2)o1`, which Potency is on record?
A: inconclusive: 11.6 µM [inhibitor, partial curve, poor fit]

Q: With `COc1ccc(/C=N/NC(=O)c2cc(-c3ccccc3)nc3ccccc23)c(OC)c1` as the molecule, how does the Potency read?
A: active: 11.6 µM

Q: Which Potency does the source give for `O=C(CSc1nc2ccc(NC(=O)c3ccccc3C(=O)O)cc2s1)Nc1c(Cl)cccc1Cl` here?
A: inconclusive: 20.6 µM [inhibitor, single point]

Q: Which Potency does the source give for `Cc1cccc(N2CCN(C(=O)C3CC(=O)N(C4CCCC4)C3)CC2)c1C` (stereo not drawn) here?
A: inconclusive: 14.6 µM [inhibitor, partial curve]

Q: For `O=C(O)c1ccc(-c2nc(-c3cccc(C(F)(F)F)c3)cs2)cc1`, which Potency is on record?
A: inconclusive: 1.3 µM [inhibitor, single point]

Q: For `CCCCCCC(=O)Nc1nc(C)c(-c2csc(Nc3cc(OC)ccc3OC)n2)s1`, which Potency is on record?
A: inconclusive: 10.3 µM [inhibitor, partial curve]

Q: For `COC(=O)[C@@]12CCCN1[C@H](c1ccc(-c3cccc(Cl)c3)cc1)[C@H]1C(=O)N(C)C(=O)[C@H]12`, which Potency is on record?
A: inconclusive: 2.82 µM [inhibitor, partial curve, poor fit]

Q: For `CCCCSc1nnc(-c2ccccc2N)c(=O)[nH]1`, which Potency is on record?
A: inconclusive: 16.4 µM [activator, partial curve]

Q: With `CC(C)c1ccccc1NC(=O)COC(=O)c1c2c(nc3ccccc13)CCN(Cc1ccccc1)C2` as the molecule, how does the Potency read?
A: active: 11.6 µM

Q: Which Potency does the source give for `COc1cccc(-c2cc(C(=O)Nc3cnn(Cc4ccc(F)cc4)c3)no2)c1` here?
A: inconclusive: 29.1 µM [activator, partial curve, poor fit]

Q: Which Potency does the source give for `CN(C)/C=N/c1ncc(C(=O)OC(C)(C)C)s1` here?
A: inconclusive: 16.4 µM [activator, partial curve]

Q: Which Potency does the source give for `Nc1ccccc1C(=O)NNc1c2ccccc2nc2ccccc12` here?
A: inconclusive: 1.16 µM [inhibitor, single point]

Q: With `O=C(CSc1ccc2ccccc2n1)N/N=C/c1ccccc1O` as the molecule, how does the Potency read?
A: active: 16.4 µM

Q: With `CCOC(=O)c1ccc(S(=O)(=O)N2CCN(C(=O)c3cc(=O)c4ccccc4o3)CC2)cc1` as the molecule, how does the Potency read?
A: inconclusive: 29.1 µM [inhibitor, single point]

Q: Which Potency does the source give for `CC(=O)c1sc(NC(=O)c2c(F)cccc2F)nc1-c1ccccc1` here?
A: inconclusive: 23.1 µM [activator, partial curve, poor fit]

Q: For `CN(C(=O)c1ccc(NC(=O)C2CCN(C(=O)OC(C)(C)C)CC2)cc1)C1CCC1`, which Potency is on record?
A: inconclusive: 25.9 µM [inhibitor, single point]

Q: Which Potency does the source give for `O=C(Nc1ccon1)c1sc2ccccc2c1Cl` here?
A: inconclusive: 18.4 µM [activator, partial curve]

Q: With `O=C(/C=C/c1ccccc1)Nc1nc(-c2ccncc2)cs1` as the molecule, how does the Potency read?
A: inconclusive: 23.1 µM [inhibitor, single point]

Q: For `Cc1ccccc1CN(c1ccc(C(=O)N2CCc3ccccc3C2)cc1)S(C)(=O)=O`, which Potency is on record?
A: active: 14.6 µM

Q: With `Cc1cnc(C(=O)Nc2ccc(C(=O)N(C)C3CCCCC3)cc2)cn1` as the molecule, how does the Potency read?
A: inactive

Q: For `COc1cc(OC)cc(OCC(O)Cn2cnc3cc(C)c(C)cc32)c1` (stereo not drawn), which Potency is on record?
A: inconclusive: 16.4 µM [inhibitor, single point]

Q: Which Potency does the source give for `OC(CN1CCN(C(c2ccccc2)c2ccccc2)CC1)c1ccc(Br)cc1` (stereo not drawn) here?
A: inconclusive: 23.1 µM [inhibitor, partial curve, poor fit]

Q: With `CCOc1cc(C(=O)Nc2ccc(F)cc2)cc(Br)c1OC` as the molecule, how does the Potency read?
A: inconclusive: 25.9 µM [inhibitor, partial curve, poor fit]

Q: Which Potency does the source give for `O=C(CSc1nncs1)Nc1cc(-c2ccccc2)nn1-c1ccccc1` here?
A: inconclusive: 29.1 µM [inhibitor, single point]

Q: For `CN(C(=O)COC(=O)C1(C)CC1(Cl)Cl)c1c(N)n(Cc2ccccc2)c(=O)[nH]c1=O` (stereo not drawn), which Potency is on record?
A: inactive

Q: With `COc1cc(OC)c(NC(=S)NCc2ccccc2)cc1Cl` as the molecule, how does the Potency read?
A: inactive

Q: Which Potency does the source give for `CC12CCC(C/C1=N\OC(=O)c1c(F)cccc1F)C2(C)C` (stereo not drawn) here?
A: inactive

Q: For `Cc1ccc2[nH]c3c(NCc4ccco4)ncnc3c2c1`, which Potency is on record?
A: inconclusive: 23.1 µM [inhibitor, single point]

Q: For `Brc1ccc(-c2csc(N3CCOCC3)n2)cc1`, which Potency is on record?
A: inconclusive: 10.3 µM [activator, partial curve]

Q: For `Cn1c(=O)c2cc(S(=O)(=O)Nc3ccc4c(c3)OCO4)ccc2n(C)c1=O`, which Potency is on record?
A: inconclusive: 11.2 µM [inhibitor, partial curve]

Q: With `C=CCCC(=O)Nc1nc(C)c(-c2csc(Nc3cc(OC)ccc3OC)n2)s1` as the molecule, how does the Potency read?
A: active: 7.31 µM

Q: Which Potency does the source give for `CC(=O)Nc1ccc(NC(=O)c2cccc(S(=O)(=O)N3CCCCCC3)c2)cc1` here?
A: inactive

Q: Which Potency does the source give for `CCOC(=O)N1CCN(C(=O)CSc2ccc(C(=O)OC)cc2[N+](=O)[O-])CC1` here?
A: inactive

Q: With `O=C(CCCn1c(=S)[nH]c2cc3c(cc2c1=O)OCO3)N1CCc2ccccc2C1` as the molecule, how does the Potency read?
A: inconclusive: 18.4 µM [inhibitor, partial curve]

Q: For `CCOc1ccc(NC(=O)COC(=O)C2C3CC4OC(=O)C2C4C3)cc1` (stereo not drawn), which Potency is on record?
A: inactive

Q: For `O=C(Cc1ccc(F)cc1)Nc1ccccc1N1CCCC1`, which Potency is on record?
A: inactive

Q: With `CCCN(C(=O)c1ccc(-n2cncn2)c([N+](=O)[O-])c1)C1CCS(=O)(=O)C1` (stereo not drawn) as the molecule, how does the Potency read?
A: inconclusive: 20.6 µM [activator, partial curve, poor fit]

Q: With `CCC(=O)Nc1ccc(C(=O)Nc2cc(C)on2)cc1` as the molecule, how does the Potency read?
A: inconclusive: 20.6 µM [activator, single point]

Q: Which Potency does the source give for `COC(=O)COc1ccc2c(-c3cccc([N+](=O)[O-])c3)cc(=O)oc2c1` here?
A: inconclusive: 23.1 µM [activator, partial curve]
